Results deposited as PubChem BioAssay AID1508597 (Cure First, 2020).

Purpose: 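Genes whose silencing sensitises or protects ovarian cancer cells against rucaparib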 (primary screen)
Cell system: human ovarian carcinoma lines grown from tumours: OCI-P5x (papillary serous) and OCI-C5x (clear cell)
Knock-down reagent: siRNA pool against human genes, 1.25 pmol siRNA per well
Timing: 72 h or 96 h, depending on the cell culture
Challenge: rucaparib 20 µM (about IC30) or vehicle, present until read-out
Measured: 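Luminescent ATP-based viability assay read 72 or 96 h after transfection, depending on culture, given as normalised percent viability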
Reading the numbers: viability, normalised: higher = more viable cells remaining
Active means: 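Active when normalised viability falls below 80 percent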
Calls: active = viability under 80%; inactive = viability 80% or more
The deposit covers about 2,100 reagents; below is a part drawn at random. 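Calls flag viability under 80% in either arm, not effects specific to rucaparib; the reference for percent is not stated.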 The record does not give: the 100% reference.

no.	target gene	rucaparib or vehicle	cell line	technical replicate	viability, normalised (%)	outcome
1	DYRK4 (dual specificity tyrosine phosphorylation regulated kinase 4)	Rucaparib	OCI-C5x (clear cell)	1	63.5	active
2	DYRK4 (dual specificity tyrosine phosphorylation regulated kinase 4)	Rucaparib	OCI-C5x (clear cell)	2	62.6	active
3	DYRK4 (dual specificity tyrosine phosphorylation regulated kinase 4)	Rucaparib	OCI-C5x (clear cell)	3	54.8	active
4	DYRK4 (dual specificity tyrosine phosphorylation regulated kinase 4)	Rucaparib	OCI-P5x (serous)	1	71	active
5	DYRK4 (dual specificity tyrosine phosphorylation regulated kinase 4)	Rucaparib	OCI-P5x (serous)	2	66.2	active
6	DYRK4 (dual specificity tyrosine phosphorylation regulated kinase 4)	Rucaparib	OCI-P5x (serous)	3	62.5	active
7	DYRK4 (dual specificity tyrosine phosphorylation regulated kinase 4)	Vehicle	OCI-C5x (clear cell)	1	121	inactive
8	DYRK4 (dual specificity tyrosine phosphorylation regulated kinase 4)	Vehicle	OCI-C5x (clear cell)	2	68.2	active
9	DYRK4 (dual specificity tyrosine phosphorylation regulated kinase 4)	Vehicle	OCI-C5x (clear cell)	3	68	active
10	DYRK4 (dual specificity tyrosine phosphorylation regulated kinase 4)	Vehicle	OCI-P5x (serous)	1	78.8	active
11	DYRK4 (dual specificity tyrosine phosphorylation regulated kinase 4)	Vehicle	OCI-P5x (serous)	2	77	active
12	DYRK4 (dual specificity tyrosine phosphorylation regulated kinase 4)	Vehicle	OCI-P5x (serous)	3	85.9	inactive
13	TOP3B (DNA topoisomerase III beta)	Rucaparib	OCI-C5x (clear cell)	1	61.5	active
14	TOP3B (DNA topoisomerase III beta)	Rucaparib	OCI-C5x (clear cell)	2	81.3	inactive
15	TOP3B (DNA topoisomerase III beta)	Rucaparib	OCI-C5x (clear cell)	3	72	active
16	TOP3B (DNA topoisomerase III beta)	Rucaparib	OCI-P5x (serous)	1	93.9	inactive
17	TOP3B (DNA topoisomerase III beta)	Rucaparib	OCI-P5x (serous)	2	112	inactive
18	TOP3B (DNA topoisomerase III beta)	Rucaparib	OCI-P5x (serous)	3	85.5	inactive
19	TOP3B (DNA topoisomerase III beta)	Vehicle	OCI-C5x (clear cell)	1	105	inactive
20	TOP3B (DNA topoisomerase III beta)	Vehicle	OCI-C5x (clear cell)	2	55.7	active
21	TOP3B (DNA topoisomerase III beta)	Vehicle	OCI-C5x (clear cell)	3	57.9	active
22	TOP3B (DNA topoisomerase III beta)	Vehicle	OCI-P5x (serous)	1	85.7	inactive
23	TOP3B (DNA topoisomerase III beta)	Vehicle	OCI-P5x (serous)	2	95.2	inactive
24	TOP3B (DNA topoisomerase III beta)	Vehicle	OCI-P5x (serous)	3	98.4	inactive
